Here are results for six molecules from publication PMC11496777.

Numbering of substitutions follows the chain as printed. Names and notes keep the numbering of the source. No constants are given. Whether binding was seen depends on the method and setting. In cells and extracts the contact can be indirect. Some results given as binding are weak or reduced against the parent protein; the word gives no strength. Where a sequence is shown, tags or fusion partners need not be part of it.

Test [1] deals with T1, Flag-tagged mouse MRTF-A (myocardin-related transcription factor A) (mouse) (UniProt Q8K4J6).
T1 sequence: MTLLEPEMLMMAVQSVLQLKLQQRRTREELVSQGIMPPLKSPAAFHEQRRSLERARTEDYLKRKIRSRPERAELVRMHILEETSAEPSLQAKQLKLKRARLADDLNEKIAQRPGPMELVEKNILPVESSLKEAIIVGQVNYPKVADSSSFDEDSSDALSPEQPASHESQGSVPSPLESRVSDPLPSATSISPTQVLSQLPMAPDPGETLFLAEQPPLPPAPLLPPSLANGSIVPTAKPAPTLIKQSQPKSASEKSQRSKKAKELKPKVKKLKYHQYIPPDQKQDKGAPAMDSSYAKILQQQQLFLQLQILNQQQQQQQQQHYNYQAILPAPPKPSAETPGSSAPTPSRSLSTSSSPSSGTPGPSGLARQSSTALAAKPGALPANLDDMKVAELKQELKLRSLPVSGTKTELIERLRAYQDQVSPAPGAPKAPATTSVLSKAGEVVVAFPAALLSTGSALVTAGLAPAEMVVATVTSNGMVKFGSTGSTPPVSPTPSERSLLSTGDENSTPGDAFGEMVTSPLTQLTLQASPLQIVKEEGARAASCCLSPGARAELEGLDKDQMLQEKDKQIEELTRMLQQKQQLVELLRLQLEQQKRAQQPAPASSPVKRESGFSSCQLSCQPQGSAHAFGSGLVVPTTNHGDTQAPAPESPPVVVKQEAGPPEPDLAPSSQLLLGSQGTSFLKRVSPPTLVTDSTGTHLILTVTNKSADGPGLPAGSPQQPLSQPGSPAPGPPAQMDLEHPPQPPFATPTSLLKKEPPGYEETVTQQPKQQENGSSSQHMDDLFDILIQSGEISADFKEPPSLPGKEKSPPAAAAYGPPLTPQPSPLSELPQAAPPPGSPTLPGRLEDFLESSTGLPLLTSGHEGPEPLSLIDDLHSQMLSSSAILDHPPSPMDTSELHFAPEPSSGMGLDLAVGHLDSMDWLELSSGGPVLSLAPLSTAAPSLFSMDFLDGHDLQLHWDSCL
Put plainly: co-IP; IP mixtures (500 ul) of the indicated in vitro translated proteins (TNT SP6 wheat germ extract), IP/IB with the indicated antibodies; mixes with or without CRP2BP or CRP2BP637.

Test [2] has as its target T2, HA-tagged human CRP2 (cysteine and glycine-rich protein 2) (human) (UniProt Q16527).
T2 sequence: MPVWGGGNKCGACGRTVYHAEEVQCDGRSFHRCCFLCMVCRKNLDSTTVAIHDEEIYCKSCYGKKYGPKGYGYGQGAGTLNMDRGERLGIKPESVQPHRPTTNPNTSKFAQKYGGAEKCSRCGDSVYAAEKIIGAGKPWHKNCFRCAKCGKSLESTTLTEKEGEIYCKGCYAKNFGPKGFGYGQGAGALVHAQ
Described as above.

B1: human CRP2BP (CSRP2-binding protein) (protein, UniProt Q9H8E8-1 1-782)
chain: MDSSIHLSSLISRHDDEATRTSTSEGLEEGEVEGETLLIVESEDQASVDLSHDQSGDSLNSDEGDVSWMEEQLSYFCDKCQKWIPASQLREQLSYLKGDNFFRFTCSDCSADGKEQYERLKLTWQQVVMLAMYNLSLEGSGRQGYFRWKEDICAFIEKHWTFLLGNRKKTSTWWSTVAGCLSVGSPMYFRSGAQEFGEPGWWKLVHNKPPTMKPEGEKLSASTLKIKAASKPTLDPIITVEGLRKRASRNPVESAMELKEKRSRTQEAKDIRRAQKEAAGFLDRSTSSTPVKFISRGRRPDVILEKGEVIDFSSLSSSDRTPLTSPSPSPSLDFSAPGTPASHSATPSLLSEADLIPDVMPPQALFHDDDEMEGDGVIDPGMEYVPPPAGSVASGPVVGVRKKVRGPEQIKQEVESEEEKPDRMDIDSEDTDSNTSLQTRAREKRKPQLEKDTKPKEPRYTPVSIYEEKLLLKRLEACPGAVAMTPEARRLKRKLIVRQAKRDRGLPLFDLDQVVNAALLLVDGIYGAKEGGISRLPAGQATYRTTCQDFRILDRYQTSLPSRKGFRHQTTKFLYRLVGSEDMAVDQSIVSPYTSRILKPYIRRDYETKPPKLQLLSQIRSHLHRSDPHWTPEPDAPLDYCYVRPNHIPTINSMCQEFFWPGIDLSECLQYPDFSVVVLYKKVIIAFGFMVPDVKYNEAYISFLFVHPEWRRAGIATFMIYHLIQTCMGKDVTLHVSASNPAMLLYQKFGFKTEEYVLDFYDKYYPLESTECKHAFFLRLRR
For B1, the binding result in test [1] is “binds”.

B2: Myc-tagged human SRF (serum response factor), wild-type (protein, UniProt P11831 1-508)
chain: MLPTQAGAAAALGRGSALGGSLNRTPTGRPGGGGGTRGANGGRVPGNGAGLGPGRLEREAAAAAATTPAPTAGALYSGSEGDSESGEEEELGAERRGLKRSLSEMEIGMVVGGPEASAAATGGYGPVSGAVSGAKPGKKTRGRVKIKMEFIDNKLRRYTTFSKRKTGIMKKAYELSTLTGTQVLLLVASETGHVYTFATRKLQPMITSETGKALIQTCLNSPDSPPRSDPTTDQRMSATGFEETDLTYQVSESDSSGETKDTLKPAFTVTNLPGTTSTIQTAPSTSTTMQVSSGPSFPITNYLAPVSASVSPSAVSSANGTVLKSTGSGPVSSGGLMQLPTSFTLMPGGAVAQQVPVQAIQVHQAPQQASPSRDSSTDLTQTSSSGTVTLPATIMTSSVPTTVGGHMMYPSPHAVMYAPTSGLGDGSLTVLNAFSQAPSTMQVSHSQVQEPGGVPQVFLTASSGTVQIPVSAVQLHQMAVIGQQAGSSSNLTELQVVNLDTAHSTKSE
Consider B2, for which the binding result in test [1] and in test [2] was “binds” each time.

B3: Myc-tagged SRF S103A (non-phosphorylation mutant) (protein, UniProt P11831 1-508)
chain: B2 chain with S103A
In the case of B3, the binding entry in test [1] and in test [2] was “binds” each time.

B4: Myc-tagged SRF S103D (pseudo-phosphorylation mutant) (protein, UniProt P11831 1-508)
chain: B2 chain with S103D
For B4, the binding result in test [1] and in test [2] was “binds” throughout.

B5: HA-tagged human CRP2 (cysteine and glycine-rich protein 2) (protein, UniProt Q16527 1-193)
chain: T2 sequence
B5: in test [1], the binding entry is “binds”.

B6: CRP2BP637, a mutant CRP2BP that lacks the HAT domain (domain or fragment, UniProt Q9H8E8-1 1-637)
chain: MDSSIHLSSLISRHDDEATRTSTSEGLEEGEVEGETLLIVESEDQASVDLSHDQSGDSLNSDEGDVSWMEEQLSYFCDKCQKWIPASQLREQLSYLKGDNFFRFTCSDCSADGKEQYERLKLTWQQVVMLAMYNLSLEGSGRQGYFRWKEDICAFIEKHWTFLLGNRKKTSTWWSTVAGCLSVGSPMYFRSGAQEFGEPGWWKLVHNKPPTMKPEGEKLSASTLKIKAASKPTLDPIITVEGLRKRASRNPVESAMELKEKRSRTQEAKDIRRAQKEAAGFLDRSTSSTPVKFISRGRRPDVILEKGEVIDFSSLSSSDRTPLTSPSPSPSLDFSAPGTPASHSATPSLLSEADLIPDVMPPQALFHDDDEMEGDGVIDPGMEYVPPPAGSVASGPVVGVRKKVRGPEQIKQEVESEEEKPDRMDIDSEDTDSNTSLQTRAREKRKPQLEKDTKPKEPRYTPVSIYEEKLLLKRLEACPGAVAMTPEARRLKRKLIVRQAKRDRGLPLFDLDQVVNAALLLVDGIYGAKEGGISRLPAGQATYRTTCQDFRILDRYQTSLPSRKGFRHQTTKFLYRLVGSEDMAVDQSIVSPYTSRILKPYIRRDYETKPPKLQLLSQIRSHLHRSDPHWTPEPDAP
In the case of B6, in test [1], the binding result is given as “binds”.
